At least one compound was matched to its structure with a doubt left.
System: white adipose tissue (WAT)
Test: Treatment of ob/ob mice: white adipose tissue weight, histology and F4/80 immunohistochemistry
Format: in vivo
Conditions: oral, 4 days, compound 9 10 and 30 mg/Kg/d (dose-dependent), rosiglitazone 10 mg/Kg/d
From the text: […]. […] […].
The samples of epididymal white adipose tissue (WAT) and liver were fixed in 4% paraformaldehyde, embedded in paraffin, sectioned with a microtome (Leica RM2245, Leica Biosystems, Wetzlar, Germany) and mounted in microscope slides Superfrost® plus (Thermo Fisher Scientific, Waltham, MA). Cross sections of WAT and liver were obtained. At least 10 slides were examined containing ≈ 4 cross sections of tissue (5 µm thickness) of each animal. Hematoxilin and eosin (H&E) staining was performed of the WAT and liver. Inflammatory infiltration in WAT was measured as previously described (Toyoda et al., 2008). After inactivation of the peroxidase (3% H2O2) and blocking with goat serum (Abcam, Cambridge, UK), cross sections of WAT were incubated overnight (4°C) with the following primary (mAb) monoclonal antibody: a rabbit anti-mouse F4/80 mAb (dilution 1:100, Abcam, Cambridge, UK). A specific marking was detected with a secondary goat HRP-conjugated anti-rabbit antibody (dilution 1:500, Dako, Copenhagen, Denmark). […] Five fields of each WAT tissue section were photographed (Axio Observer A1, Carl Zeiss microscope, Thornwood, NY) digitalized and analyzed (Imaged software 1.48V, Bethesda, […]). Quantification was performed double blind with codes.

## CN(CCOc1ccc(CC2SC(=O)NC2=O)cc1)c1ccccn1 (stereo not shown) [Rosiglitazone, rosiglitazone, reference compound]
  mean area of the adipocytes in WAT: reducing the mean area of the adipocytes

— EP3733658B1, “PRENYLATED BENZOPYRANES AS PPAR AGONISTS” (Universitat de València, priority 2017, dated 2019)
